Source: US12209086B2, “FGFR3 inhibitor compounds” (ELI LILLY AND COMPANY, priority 2021, dated 2025)
Some results were stated once for a whole list of compounds, not compound by compound.

The chains behind the UniProt entries cited, without tags or fusion partners. Residues count along the entry.
UniProt P22607, 23-806: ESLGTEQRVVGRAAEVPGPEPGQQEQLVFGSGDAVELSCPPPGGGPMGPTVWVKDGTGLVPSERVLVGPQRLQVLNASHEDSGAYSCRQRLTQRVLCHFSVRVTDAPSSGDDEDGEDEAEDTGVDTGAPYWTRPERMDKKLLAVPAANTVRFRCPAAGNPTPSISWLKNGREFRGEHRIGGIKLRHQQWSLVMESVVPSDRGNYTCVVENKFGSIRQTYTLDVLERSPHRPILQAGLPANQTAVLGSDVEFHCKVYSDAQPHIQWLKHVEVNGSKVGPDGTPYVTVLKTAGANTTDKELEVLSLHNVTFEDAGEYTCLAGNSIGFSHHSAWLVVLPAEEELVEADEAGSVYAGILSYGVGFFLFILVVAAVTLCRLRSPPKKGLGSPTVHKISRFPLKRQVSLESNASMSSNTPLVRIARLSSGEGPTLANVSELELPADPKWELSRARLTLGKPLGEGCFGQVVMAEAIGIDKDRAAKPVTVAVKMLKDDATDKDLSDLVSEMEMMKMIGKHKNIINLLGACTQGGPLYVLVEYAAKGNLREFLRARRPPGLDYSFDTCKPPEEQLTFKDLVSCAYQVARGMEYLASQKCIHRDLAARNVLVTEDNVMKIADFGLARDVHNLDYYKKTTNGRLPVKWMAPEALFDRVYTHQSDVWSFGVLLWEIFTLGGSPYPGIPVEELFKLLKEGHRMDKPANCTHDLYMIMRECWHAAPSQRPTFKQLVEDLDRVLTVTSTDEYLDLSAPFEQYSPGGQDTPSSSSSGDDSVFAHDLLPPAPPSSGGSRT

molecular target: T1, FGFR3 protein (Homo sapiens, UniProt P22607); assay: FGFR3 enzyme assay (KinEASE-TK HTRF kinase assay); assay type: biochemical; details: 0.25 nM enzyme, ATP at Km, 15 min pre-incubation on ice, 30 min at 30° C.
T1 construct: purchased Reaction Biology 1068
Procedure: FGFR3 and FGFR1 Enzyme Assay
Enzyme activity was monitored using the KinEASE™-TK Assay Kit (Cisflio, Cat. No. 62TK0PEC) according to the manufacturer's instructions. All assays were performed at the respective KmATP for each kinase in KinEASE™ Kinase Buffer.
Titration of compounds were performed in a half-log manner in 100% dimethyl sulfoxide (DMSO) starting at 1 uM. Prior to the initiation of the reaction by adenosine triphosphate (ATP), FGFR1 protein and compounds were pre-incubated for 15 minutes at room temperature, and FGFR3 protein and compounds were pre-incubated on ice for 15 minutes. Reactions proceeded for 30 min at 30° C. Plates were quenched by the addition of the Anti-TK cryptate antibody/Streptavidin-XL665 mixture.
Ratios were converted to a percent of control (POC) using a ratiometric emission factor. One hundred POC was determined using no test compound, and 0 POC was determined in the presence of 1 uM of an appropriate control inhibitor.

IC50, < 350 nM:
Cc1c(-c2cc(OC(C)c3cnsc3)n3c(C#N)cnc3c2)nnn1C1CCN(C#N)CC1 (single isomer, unassigned) [Example 122, 7-[1-(1-Cyano-4-piperidyl)-5-methyl-triazol-4-yl]-5-(1-isothiazol-4-ylethoxy)imidazo[1,2-a]pyridine-3-carbonitrile]
Cc1c(-c2cc(OC(C)c3ccsn3)n3c(C#N)cnc3c2)nnn1C1CCN(C#N)CC1 (single isomer, unassigned) [Example 124, 7-[1-(1-Cyano-4-piperidyl)-5-methyl-triazol-4-yl]-5-(1-isothiazol-3-ylethoxy)imidazo[1,2-a]pyridine-3-carbonitrile]
Cc1c(-c2cc(OC(C)c3cncc(C(F)(F)F)c3)c3c(C#N)cnn3c2)nnn1C1CCN(C#N)CC1 (single isomer, unassigned) [Example 126, 6-[1-(1-Cyano-4-piperidyl)-5-methyl-triazol-4-yl]-4-[1-[5-(trifluoromethyl)-3-pyridyl]ethoxy] pyrazolo [1,5-a]pyridine-3-carbonitrile]
Cc1c(-c2cc(OC(C)c3ccns3)n3c(C#N)cnc3c2)nnn1C1CCN(C#N)CC1 (single isomer, unassigned) [Example 128, 7-[1-(1-Cyano-4-piperidyl)-5-methyl-triazol-4-yl]-5-(1-isothiazol-5-ylethoxy)imidazo[1,2-a]pyridine-3-carbonitrile]
Cc1c(-c2cc(OC(C)c3ccc(F)cn3)n3c(C#N)cnc3c2)nnn1C1CCCN(C#N)CC1 (single isomer, unassigned) [Example 130, 7-[1-(1-Cyanoazepan-4-yl)-5-methyl-triazol-4-yl]-5-[1-(5-fluoro-2-pyridyl)ethoxy] imidazo [1,2-a]pyridine-3-carbonitrile]
COc1cncc(C(C)Oc2cc(-c3nnn(C4CCN(C#N)CC4)c3C)cc3ncc(C#N)n23)c1 (single isomer, unassigned) [Example 132, 7-[1-(1-Cyano-4-piperidyl)-5-methyl-triazol-4-yl]-5-[1-(5-methoxy-3-pyridyl)ethoxy] imidazo [1,2-a]pyridine-3-carbonitrile]
Cc1c(-c2cc(OC(C)c3ccc(Cl)nc3)n3c(C#N)cnc3c2)nnn1C1CCN(C#N)CC1 (single isomer, unassigned) [Example 134, 5-[1-(6-Chloro-3-pyridyl)ethoxy]-7-[1-(1-cyano-4-piperidyl)-5-methyl-triazol-4-yl]imidazo[1,2-a]pyridine-3-carbonitrile]
Cc1c(-c2cc(OC(C)c3cc(C(F)(F)F)on3)n3c(C#N)cnc3c2)nnn1C1CCN(C#N)CC1 (single isomer, unassigned) [Example 136, 7-[1-(1-Cyano-4-piperidyl)-5-methyl-triazol-4-yl]-5-[1-[5-(trifluoromethyl)isoxazol-3-yl]ethoxy]imidazo [1,2-a]pyridine-3-carbonitrile]
Cc1c(-c2cc(OC(c3ccc(F)cn3)C(F)F)n3c(C#N)cnc3c2)nnn1C1CCN(C#N)CC1 (single isomer, unassigned) [Example 138, 7-[1-(1-Cyano-4-piperidyl)-5-methyl-triazol-4-yl]-5-[2,2-difluoro-1-(5-fluoro-2-pyridyl)ethoxy]imidazo [1,2-a]pyridine-3-carbonitrile]
Cc1c(-c2cc(OC(c3ccc(F)cn3)C3(C(F)(F)F)CC3)n3c(C#N)cnc3c2)nnn1C1CCN(C#N)CC1 (single isomer, unassigned) [Example 140, 7-[1-(1-Cyano-4-piperidyl)-5-methyl-triazol-4-yl]-5-[(5-fluoro-2-pyridyl)-[1-(trifluoromethyl)cyclopropyl]methoxy] imidazo [1,2-a]pyridine-3-carbonitrile]
COCC(Oc1cc(-c2nnn(C3CCN(C#N)CC3)c2C)cc2ncc(C#N)n12)c1cncc(C(F)(F)F)c1 (single isomer, unassigned) [Example 141, 7-[1-(1-Cyano-4-piperidyl)-5-methyl-triazol-4-yl]-5-[2-methoxy-1-[5-(trifluoromethyl)-3-pyridyl]ethoxy] imidazo [1,2-a]pyridine-3-carbonitrile]
Cc1c(-c2cc(OC(C)c3cncc(F)c3)n3c(C#N)cnc3c2)nnn1C1CCN(C#N)CC1 (single isomer, unassigned) [Example 143, 7-[1-(1-Cyano-4-piperidyl)-5-methyl-triazol-4-yl]-5-[1-(5-fluoro-3-pyridyl)ethoxy] imidazo [1,2-a]pyridine-3-carbonitrile]
Cc1c(-c2cc(OC(C)c3cncc(Cl)c3)n3c(C#N)cnc3c2)nnn1C1CCN(C#N)CC1 (single isomer, unassigned) [Example 145, 5-[1-(5-Chloro-3-pyridyl)ethoxy]-7-[1-(1-cyano-4-piperidyl)-5-methyl-triazol-4-yl]imidazo[1,2-a]pyridine-3-carbonitrile]
Cc1cnc(C(C)Oc2cc(-c3nnn(C4CCN(C#N)CC4)c3C)cc3ncc(C#N)n23)s1 (single isomer, unassigned) [Example 146, 7-[1-(1-Cyano-4-piperidyl)-5-methyl-triazol-4-yl]-5-[1-(5-methylthiazol-2-yl)ethoxy]imidazo [1,2-a]pyridine-3-carbonitrile]
Cc1c(-c2cc(OC3c4ncccc4CC3(F)F)n3c(C#N)cnc3c2)nnn1C1CCN(C#N)CC1 (single isomer, unassigned) [Example 148, 7-[1-(1-Cyano-4-piperidyl)-5-methyl-triazol-4-yl]-5-[(6,6-difluoro-5,7-dihydrocyclopenta[b]pyridin-7-yl)oxy]imidazo[1,2-a]pyridine-3-carbonitrile]
Cc1c(-c2cc(OC(CO)c3ccc(F)cn3)c3c(F)cnn3c2)nnn1C1CCN(C#N)CC1 (single isomer, unassigned) [Example 150, 4-[4-[3-Fluoro-4-[1-(5-fluoro-2-pyridyl)-2-hydroxy-ethoxy]pyrazolo[1,5-a]pyridin-6-yl]-5-methyl-triazol-1-yl]piperidine-1-carbonitrile]
Cc1c(-c2cc(OC(CO)c3ccccn3)c3c(Cl)cnn3c2)nnn1C1CCN(C#N)CC1 (single isomer, unassigned) [Example 151, 4-[4-[3-Chloro-4-[2-hydroxy-1-(2-pyridyl)ethoxy]pyrazolo [1,5-a]pyridin-6-yl]-5-methyl-triazol-1-yl]piperidine-1-carbonitrile]
Cc1c(-c2cc(OC(CO)c3ccc(F)cn3)c3c(Cl)cnn3c2)nnn1C1CC(N2CCN(C#N)CC2)C1 (single isomer, unassigned) [Example 152, Cis-4-[3-[4-[3-Chloro-4-[1-(5-fluoro-2-pyridyl)-2-hydroxy-ethoxy]pyrazolo[1,5-a]pyridin-6-yl]-5-methyl-triazol-1-yl]cyclobutyl] piperazine-1-carbonitrile]
Cc1c(-c2cc(OCC(O)c3ccc(F)cn3)c3c(F)cnn3c2)nnn1C1CCN(C#N)CC1 (single isomer, unassigned) [Example 153, 4-[4-[3-Fluoro-4-[2-(5-fluoro-2-pyridyl)-2-hydroxy-ethoxy]pyrazolo[1,5-a]pyridin-6-yl]-5-methyl-triazol-1-yl]piperidine-1-carbonitrile]
